Drug screen on melanoma cell lines: cell count

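Human melanoma cells were exposed to two drugs together for 72 h in 1,536-well plates and read by automated microscopy after fixing and staining. The read-out is cell count (nuclei) in % of the DMSO control; lower values mean stronger growth inhibition or killing. Every drug was used at one fixed concentration, the lower of two screened (a fifth of the higher). No replicate spread is given; individual values may be noisy.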
An unselected part of the screen is shown.

Drugs:
fingolimod: CCCCCCCCc1ccc(CCC(N)(CO)CO)cc1 at 2 µM
vorinostat: O=C(CCCCCCC(=O)Nc1ccccc1)NO at 0.08 µM
temozolomide: Cn1nnc2c(C(N)=O)ncn2c1=O at 2 µM
decitabine: Nc1ncn([C@H]2C[C@H](O)[C@@H](CO)O2)c(=O)n1 at 0.1 µM
CP-690550: C[C@@H]1CCN(C(=O)CC#N)C[C@@H]1N(C)c1ncnc2[nH]ccc12 at 1 µM
L-779450: Oc1cc(-c2nc(-c3ccccc3)[nH]c2-c2ccncc2)ccc1Cl at 0.2 µM
BI-D1870: CC(C)CCN1c2nc(Nc3cc(F)c(O)c(F)c3)ncc2N(C)C(=O)C1C (stereo not drawn) at 0.2 µM
GW0742: Cc1cc(SCc2sc(-c3ccc(C(F)(F)F)c(F)c3)nc2C)ccc1OCC(=O)O at 2 µM
SNS-314: O=C(Nc1cccc(Cl)c1)Nc1ncc(CCNc2ncnc3ccsc23)s1 at 0.0008 µM
tipifarnib: Cn1cncc1[C@@](N)(c1ccc(Cl)cc1)c1ccc2c(c1)c(-c1cccc(Cl)c1)cc(=O)n2C at 0.01 µM
U73122: COc1ccc2c(c1)CCC1C2CCC2(C)C(NCCCCCCN3C(=O)C=CC3=O)CCC12 (stereo not drawn) at 0.4 µM
LFM-A13: C/C(O)=C(\C#N)C(=O)Nc1cc(Br)ccc1Br at 2 µM
A-769662: N#Cc1c(O)c2c(-c3ccc(-c4ccccc4O)cc3)csc2[nH]c1=O at 2 µM
cediranib: COc1cc2c(Oc3ccc4[nH]c(C)cc4c3F)ncnc2cc1OCCCN1CCCC1 at 0.4 µM
YM155: COCC[n+]1c2c(n(Cc3cnccn3)c1C)C(=O)c1ccccc1C2=O at 0.0004 µM
gemcitabine: Nc1ccn([C@@H]2O[C@H](CO)[C@@H](O)C2(F)F)c(=O)n1 at 0.0004 µM
GW2580: COc1ccc(COc2ccc(Cc3cnc(N)nc3N)cc2OC)cc1 at 1 µM
fludarabine: Nc1nc(F)nc2c1ncn2[C@@H]1O[C@H](CO)[C@@H](O)[C@@H]1O at 0.2 µM
BMS-536924: Cc1cc(N2CCOCC2)cc2[nH]c(-c3c(NC[C@@H](O)c4cccc(Cl)c4)cc[nH]c3=O)nc12 at 0.2 µM
SU6656: CN(C)S(=O)(=O)c1ccc2c(c1)/C(=C/c1cc3c([nH]1)CCCC3)C(=O)N2 at 0.4 µM

With GW0742 and GW2580 the screen read COLO 792: 96.7. For decitabine and A-769662 the values were COLO 792: 96.4. With GW2580 and LFM-A13 the screen read COLO 792: 96.6. With U73122 and gemcitabine the screen read COLO 792: 94.5.

With fingolimod and SU6656 the screen read COLO 792: 97.5. LFM-A13 and U73122 gave COLO 792: 108. GW0742 and SNS-314 gave COLO 792: 96.7. Results for gemcitabine and BI-D1870 are COLO 792: 104.

With GW0742 and YM155 the screen read COLO 792: 107. Results for GW0742 and SU6656 are COLO 792: 91.8. temozolomide and GW0742 gave COLO 792: 88.3. With decitabine and BMS-536924 the screen read COLO 792: 85.5.

Results for GW0742 and cediranib are COLO 792: 89.3. With tipifarnib and GW0742 the screen read COLO 792: 102. With A-769662 and GW0742 the screen read COLO 792: 92.9. With GW0742 and vorinostat the screen read COLO 792: 98.2.

For BI-D1870 and LFM-A13 the values were COLO 792: 95.5. fludarabine and SU6656 gave COLO 792: 76.2. With BI-D1870 and decitabine the screen read COLO 792: 92.0. With CP-690550 and LFM-A13 the screen read COLO 792: 97.0.

For LFM-A13 and BMS-536924 the values were COLO 792: 74.9. For LFM-A13 and L-779450 the values were COLO 792: 103. For CP-690550 and GW0742 the values were COLO 792: 113. For vorinostat and LFM-A13 the values were COLO 792: 92.6.

From a melanoma drug combination screen (doi:10.1371/journal.pone.0140310); values rounded.